Experimental data as given in PMC10754819.
These are yes or no findings as the source states them, for the method shown. In cells and extracts the contact can be indirect. Sequences can lack the tags named with a protein.

Chains of the proteins cited; added tags and fusions are not shown.
UniProt Q9VCE6: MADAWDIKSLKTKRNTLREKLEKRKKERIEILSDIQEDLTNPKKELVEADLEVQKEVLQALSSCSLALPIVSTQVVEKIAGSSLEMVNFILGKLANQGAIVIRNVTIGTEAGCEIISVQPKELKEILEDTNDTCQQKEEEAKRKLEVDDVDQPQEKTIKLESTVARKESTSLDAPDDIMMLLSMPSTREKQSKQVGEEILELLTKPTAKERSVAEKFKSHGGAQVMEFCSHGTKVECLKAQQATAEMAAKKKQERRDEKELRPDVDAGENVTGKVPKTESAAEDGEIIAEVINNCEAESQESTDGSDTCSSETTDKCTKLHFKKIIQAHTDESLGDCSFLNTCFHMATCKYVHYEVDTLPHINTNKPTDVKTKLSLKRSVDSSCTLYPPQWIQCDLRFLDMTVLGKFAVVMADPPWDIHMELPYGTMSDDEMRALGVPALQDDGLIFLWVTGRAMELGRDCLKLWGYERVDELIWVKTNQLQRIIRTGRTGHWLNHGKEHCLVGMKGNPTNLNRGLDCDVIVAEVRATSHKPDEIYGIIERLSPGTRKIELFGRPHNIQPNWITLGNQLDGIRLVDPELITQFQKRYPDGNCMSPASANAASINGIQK
UniProt Q9NFU0: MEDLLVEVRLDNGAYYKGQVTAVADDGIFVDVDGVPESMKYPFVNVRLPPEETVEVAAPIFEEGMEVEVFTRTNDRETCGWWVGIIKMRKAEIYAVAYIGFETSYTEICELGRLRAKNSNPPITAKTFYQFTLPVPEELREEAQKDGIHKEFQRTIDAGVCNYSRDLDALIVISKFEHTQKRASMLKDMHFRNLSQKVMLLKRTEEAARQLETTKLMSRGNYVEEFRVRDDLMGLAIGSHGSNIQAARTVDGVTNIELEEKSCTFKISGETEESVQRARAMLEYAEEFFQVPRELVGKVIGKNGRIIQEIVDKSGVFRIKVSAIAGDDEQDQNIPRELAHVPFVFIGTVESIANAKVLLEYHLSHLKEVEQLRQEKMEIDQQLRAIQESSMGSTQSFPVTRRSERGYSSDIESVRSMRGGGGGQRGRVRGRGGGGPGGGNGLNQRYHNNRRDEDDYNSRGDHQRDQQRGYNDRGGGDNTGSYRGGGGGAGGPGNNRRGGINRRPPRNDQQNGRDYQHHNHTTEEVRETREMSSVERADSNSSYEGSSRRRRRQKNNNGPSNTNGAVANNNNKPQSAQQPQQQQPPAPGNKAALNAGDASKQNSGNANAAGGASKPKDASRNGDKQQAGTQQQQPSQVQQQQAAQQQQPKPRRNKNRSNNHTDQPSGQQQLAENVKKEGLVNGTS

T1: dTrmt10A-FLAG-HA (Drosophila Trmt10A, CG14618) (Drosophila) (UniProt Q9VR56)
T1 sequence: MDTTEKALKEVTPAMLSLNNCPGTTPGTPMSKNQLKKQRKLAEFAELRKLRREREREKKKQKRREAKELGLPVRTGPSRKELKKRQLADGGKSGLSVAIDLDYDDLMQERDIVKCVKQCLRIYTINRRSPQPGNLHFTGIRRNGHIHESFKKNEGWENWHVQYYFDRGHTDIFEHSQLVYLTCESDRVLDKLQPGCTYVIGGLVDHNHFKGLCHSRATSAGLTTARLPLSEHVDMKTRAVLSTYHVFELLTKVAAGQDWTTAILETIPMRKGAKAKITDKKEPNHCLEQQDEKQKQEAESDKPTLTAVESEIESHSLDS

B1: Ythdc1 (protein, UniProt Q9VZQ1 1-721)
chain: MPRAARKQTLPMREMADLDAVHLGLDENEADIAEELQDFEFNTRSEASESNGGDSSDSEPSISSVSTATSSLAGSSKRKTKKPAKQSPQPAVETKSSKSSAKNKAKREPTPEELNGGKKKKRTDSGTKKTTSSEASDKVKSKSPDTEDRQPSAKKSRTKIPSNANDSAGHKSDLSEAEDEKPSLPTLESDSESSDSDSGTQHKRNGGNGGGNGRGKPSSKSSTPEKDSVGGGTHSHSQKGYDYMTKLNYLFRDTRFFLIKSNNSDNVQLSKNKSVWATLPQNDANLNQAFKEARNVLLIFSVNESGKFAGFARMAAPSRRDIPQVAWVLPPSISPKALGGVIELDWICRKELSFNATLHLHNTWNEGKPVKIGRDGQEIEPKIGGELCRLFPEDEQIELTPILKKSKETARVMREKGIHVIYKPPRSLSSRGHGGGGRGGGRGSNHDHLGPMRHKRSYHGAPHHRPYRHHHGMGLPPGGGFKRSGSPYRQMGGAAGAPPGGPGDMAMPSWERYMSSAAAAEAYVADYMRNMHGQLPPLPFVPPFAQLPIPGAGAGAAGALPPGAAAAMYEQLPPPVRYYDGPGAPPLPDYPPPQRPPPPGFDKAPSYEEFAAWKNAGLPTVPPPGFPVYGGAANGGSNGAGGLAAAQAAAAGGGMGAGGGSGGGMGGPGGYRNRDGNNGSAGGRRREYGNRSGGGGSSRDSRPFRERGGGGGQRSYRDNRR

Molecular target: T1, dTrmt10A-FLAG-HA (Drosophila Trmt10A, CG14618) (Drosophila)
Test: co-IP; dTrmt10A-FLAG-HA immunoprecipitated from adult fly head lysates with anti-HA antibody on agarose resin (Pierce Co-IP kit), mouse IgG as control; immunoblotting (Supplementary Fig. 4)

binding, no binding:
Mettl3 (from UniProt Q9VCE6 1-608) (enzyme)
Fmr1 (from UniProt Q9NFU0 1-684)
B1
